The list shows a part of the results.
Key:
Assay in all cases: log2 fold change, soluble protein after heating vs DMSO (PISA); higher = thermal stabilisation; K562 cells, 10 uM, 30 min; active = over 0.2 and 3.5 SD of the protein, either way, in both replicates (recomputed)
[1] = compound: CC[C@@H]1C(=O)N(C)c2cnc(Nc3ccc(C(=O)NC4CCN(C)CC4)cc3OC)nc2N1C1CCCC1
Summary of the method: (§1)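 Values are thermal stability changes relative to control samples and are taken from duplicates. They are stated as log2 fold changes. Before quantification by TMTpro 16plex LC-MS/MS with equalised channel sums, K562 cells at 2×10^6 cells/mL were treated with 10 μM compound for 30 min, heated in aliquots for 3 min across 48°C-58°C, pooled, extracted in PBS with 0.5% NP-40 at 4°C, and centrifuged at 21,000xg for 90 min to give the soluble supernatant.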

Chains of the proteins cited; added tags and fusions are not shown. Lines headed by an entry give the natural chain unless they say otherwise; changes in a name come on top.
UniProt Q96DA6: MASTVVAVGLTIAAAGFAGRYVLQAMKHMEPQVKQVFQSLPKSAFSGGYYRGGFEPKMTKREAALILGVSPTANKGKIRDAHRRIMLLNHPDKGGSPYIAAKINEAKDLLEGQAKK
UniProt Q99704: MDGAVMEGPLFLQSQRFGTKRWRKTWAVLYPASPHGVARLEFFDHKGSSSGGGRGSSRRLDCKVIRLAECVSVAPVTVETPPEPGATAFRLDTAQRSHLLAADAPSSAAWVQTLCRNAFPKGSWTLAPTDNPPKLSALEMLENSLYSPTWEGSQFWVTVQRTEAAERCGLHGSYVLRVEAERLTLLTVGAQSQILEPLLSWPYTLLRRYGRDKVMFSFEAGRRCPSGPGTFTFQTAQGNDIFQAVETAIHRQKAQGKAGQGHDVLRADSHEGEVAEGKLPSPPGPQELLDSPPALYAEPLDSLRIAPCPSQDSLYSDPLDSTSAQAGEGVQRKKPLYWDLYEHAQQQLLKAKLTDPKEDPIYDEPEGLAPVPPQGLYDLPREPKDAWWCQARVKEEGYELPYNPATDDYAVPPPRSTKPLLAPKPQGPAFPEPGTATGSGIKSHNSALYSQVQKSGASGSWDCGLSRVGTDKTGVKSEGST
UniProt Q5QJE6: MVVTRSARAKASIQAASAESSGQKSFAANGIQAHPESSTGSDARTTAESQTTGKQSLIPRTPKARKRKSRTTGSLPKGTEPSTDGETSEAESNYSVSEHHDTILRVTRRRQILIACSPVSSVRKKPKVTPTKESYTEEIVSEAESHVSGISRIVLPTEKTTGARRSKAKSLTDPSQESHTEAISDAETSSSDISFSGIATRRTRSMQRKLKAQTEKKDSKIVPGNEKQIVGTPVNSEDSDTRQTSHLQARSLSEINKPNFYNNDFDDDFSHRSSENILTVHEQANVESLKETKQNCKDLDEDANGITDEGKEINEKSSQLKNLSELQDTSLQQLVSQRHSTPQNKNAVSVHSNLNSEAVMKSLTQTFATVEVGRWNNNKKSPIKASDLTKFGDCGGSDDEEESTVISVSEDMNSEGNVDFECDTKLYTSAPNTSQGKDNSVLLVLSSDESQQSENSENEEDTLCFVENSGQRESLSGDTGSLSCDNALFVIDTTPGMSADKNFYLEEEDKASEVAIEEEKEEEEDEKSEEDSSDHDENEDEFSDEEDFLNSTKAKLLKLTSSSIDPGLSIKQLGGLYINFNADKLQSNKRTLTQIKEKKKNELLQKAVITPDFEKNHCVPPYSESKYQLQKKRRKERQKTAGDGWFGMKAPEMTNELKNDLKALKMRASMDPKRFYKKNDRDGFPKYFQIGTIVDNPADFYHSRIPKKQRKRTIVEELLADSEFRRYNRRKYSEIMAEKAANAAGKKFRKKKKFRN
UniProt O60762: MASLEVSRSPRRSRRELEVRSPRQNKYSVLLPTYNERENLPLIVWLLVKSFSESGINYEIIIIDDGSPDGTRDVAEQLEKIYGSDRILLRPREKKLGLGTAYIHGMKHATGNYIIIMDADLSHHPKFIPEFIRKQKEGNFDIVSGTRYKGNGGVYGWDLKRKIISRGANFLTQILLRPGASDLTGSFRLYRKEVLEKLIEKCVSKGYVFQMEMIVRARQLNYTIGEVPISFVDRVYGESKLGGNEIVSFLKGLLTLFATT
UniProt Q99848: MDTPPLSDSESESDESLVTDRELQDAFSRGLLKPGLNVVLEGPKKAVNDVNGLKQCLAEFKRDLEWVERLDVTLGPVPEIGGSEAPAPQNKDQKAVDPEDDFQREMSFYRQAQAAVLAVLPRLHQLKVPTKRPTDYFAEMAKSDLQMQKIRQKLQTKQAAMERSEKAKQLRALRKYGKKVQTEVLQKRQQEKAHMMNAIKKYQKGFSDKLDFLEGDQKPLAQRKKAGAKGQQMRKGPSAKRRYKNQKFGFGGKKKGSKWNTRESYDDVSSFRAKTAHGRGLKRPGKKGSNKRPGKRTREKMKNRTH
UniProt Q96DC8: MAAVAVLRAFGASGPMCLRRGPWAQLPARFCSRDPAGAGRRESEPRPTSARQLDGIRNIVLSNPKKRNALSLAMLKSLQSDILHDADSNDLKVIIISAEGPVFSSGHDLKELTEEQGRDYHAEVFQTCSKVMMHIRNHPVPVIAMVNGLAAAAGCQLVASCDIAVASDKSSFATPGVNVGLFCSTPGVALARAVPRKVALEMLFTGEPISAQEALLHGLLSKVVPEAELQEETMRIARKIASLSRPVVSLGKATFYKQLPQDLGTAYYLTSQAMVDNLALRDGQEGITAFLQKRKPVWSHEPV
UniProt O75923: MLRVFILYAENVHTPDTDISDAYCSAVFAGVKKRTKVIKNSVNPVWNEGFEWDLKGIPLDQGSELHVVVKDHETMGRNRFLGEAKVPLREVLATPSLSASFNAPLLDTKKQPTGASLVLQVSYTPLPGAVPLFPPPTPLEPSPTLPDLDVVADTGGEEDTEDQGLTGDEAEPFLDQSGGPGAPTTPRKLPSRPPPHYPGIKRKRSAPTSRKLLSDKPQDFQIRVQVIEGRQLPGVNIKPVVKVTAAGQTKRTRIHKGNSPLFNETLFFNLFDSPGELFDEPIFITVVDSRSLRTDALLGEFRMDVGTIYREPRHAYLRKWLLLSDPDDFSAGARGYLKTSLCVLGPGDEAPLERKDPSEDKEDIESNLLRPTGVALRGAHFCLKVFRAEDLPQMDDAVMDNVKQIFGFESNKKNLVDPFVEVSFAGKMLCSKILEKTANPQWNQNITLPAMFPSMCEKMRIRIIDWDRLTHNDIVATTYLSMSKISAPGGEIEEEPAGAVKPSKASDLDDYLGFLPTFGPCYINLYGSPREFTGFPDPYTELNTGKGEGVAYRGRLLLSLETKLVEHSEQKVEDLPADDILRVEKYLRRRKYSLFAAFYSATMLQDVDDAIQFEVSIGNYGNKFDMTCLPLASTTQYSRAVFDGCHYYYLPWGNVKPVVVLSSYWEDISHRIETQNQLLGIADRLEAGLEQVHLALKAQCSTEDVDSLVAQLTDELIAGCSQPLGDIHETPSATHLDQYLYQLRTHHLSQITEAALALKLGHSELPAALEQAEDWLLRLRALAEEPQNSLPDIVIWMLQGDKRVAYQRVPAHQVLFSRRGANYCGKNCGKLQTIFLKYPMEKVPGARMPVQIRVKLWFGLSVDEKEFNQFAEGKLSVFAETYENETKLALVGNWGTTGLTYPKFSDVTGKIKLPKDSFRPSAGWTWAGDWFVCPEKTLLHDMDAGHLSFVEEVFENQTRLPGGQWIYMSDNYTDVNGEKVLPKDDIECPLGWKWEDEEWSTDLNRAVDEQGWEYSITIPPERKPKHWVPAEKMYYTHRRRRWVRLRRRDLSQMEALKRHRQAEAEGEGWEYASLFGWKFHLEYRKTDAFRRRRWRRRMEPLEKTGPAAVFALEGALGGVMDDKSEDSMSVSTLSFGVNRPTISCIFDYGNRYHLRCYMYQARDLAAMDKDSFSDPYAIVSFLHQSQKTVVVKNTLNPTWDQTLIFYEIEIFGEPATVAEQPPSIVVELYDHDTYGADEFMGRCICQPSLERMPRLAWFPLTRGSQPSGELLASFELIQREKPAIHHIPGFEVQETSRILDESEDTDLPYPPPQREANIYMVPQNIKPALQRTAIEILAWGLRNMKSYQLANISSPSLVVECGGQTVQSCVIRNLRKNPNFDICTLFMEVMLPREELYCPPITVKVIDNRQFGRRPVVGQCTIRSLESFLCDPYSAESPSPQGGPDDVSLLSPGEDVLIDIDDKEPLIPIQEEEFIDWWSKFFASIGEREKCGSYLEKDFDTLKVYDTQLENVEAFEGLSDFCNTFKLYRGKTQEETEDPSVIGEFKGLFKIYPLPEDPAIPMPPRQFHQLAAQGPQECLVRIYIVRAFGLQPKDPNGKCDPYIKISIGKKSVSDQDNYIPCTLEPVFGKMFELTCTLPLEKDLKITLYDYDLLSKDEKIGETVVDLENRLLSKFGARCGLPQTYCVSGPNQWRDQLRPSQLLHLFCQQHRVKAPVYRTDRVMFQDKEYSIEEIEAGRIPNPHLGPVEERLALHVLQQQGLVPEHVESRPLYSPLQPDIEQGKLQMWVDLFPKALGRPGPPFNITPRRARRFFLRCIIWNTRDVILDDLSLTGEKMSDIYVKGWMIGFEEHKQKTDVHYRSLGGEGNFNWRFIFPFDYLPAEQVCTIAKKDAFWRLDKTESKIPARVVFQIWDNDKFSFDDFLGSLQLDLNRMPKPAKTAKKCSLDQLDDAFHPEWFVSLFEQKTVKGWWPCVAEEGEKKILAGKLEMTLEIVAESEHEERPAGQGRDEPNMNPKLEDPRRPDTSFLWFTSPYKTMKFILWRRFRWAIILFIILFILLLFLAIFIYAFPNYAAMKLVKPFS
UniProt Q8N5C7: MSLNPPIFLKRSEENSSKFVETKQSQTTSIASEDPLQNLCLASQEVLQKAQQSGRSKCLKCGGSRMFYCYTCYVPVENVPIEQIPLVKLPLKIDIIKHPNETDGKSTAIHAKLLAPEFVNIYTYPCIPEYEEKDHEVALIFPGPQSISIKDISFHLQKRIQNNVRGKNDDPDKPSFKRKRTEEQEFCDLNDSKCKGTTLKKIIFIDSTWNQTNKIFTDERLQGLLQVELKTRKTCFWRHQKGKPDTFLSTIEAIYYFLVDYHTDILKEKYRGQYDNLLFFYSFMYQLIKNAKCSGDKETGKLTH
UniProt Q6XUX3: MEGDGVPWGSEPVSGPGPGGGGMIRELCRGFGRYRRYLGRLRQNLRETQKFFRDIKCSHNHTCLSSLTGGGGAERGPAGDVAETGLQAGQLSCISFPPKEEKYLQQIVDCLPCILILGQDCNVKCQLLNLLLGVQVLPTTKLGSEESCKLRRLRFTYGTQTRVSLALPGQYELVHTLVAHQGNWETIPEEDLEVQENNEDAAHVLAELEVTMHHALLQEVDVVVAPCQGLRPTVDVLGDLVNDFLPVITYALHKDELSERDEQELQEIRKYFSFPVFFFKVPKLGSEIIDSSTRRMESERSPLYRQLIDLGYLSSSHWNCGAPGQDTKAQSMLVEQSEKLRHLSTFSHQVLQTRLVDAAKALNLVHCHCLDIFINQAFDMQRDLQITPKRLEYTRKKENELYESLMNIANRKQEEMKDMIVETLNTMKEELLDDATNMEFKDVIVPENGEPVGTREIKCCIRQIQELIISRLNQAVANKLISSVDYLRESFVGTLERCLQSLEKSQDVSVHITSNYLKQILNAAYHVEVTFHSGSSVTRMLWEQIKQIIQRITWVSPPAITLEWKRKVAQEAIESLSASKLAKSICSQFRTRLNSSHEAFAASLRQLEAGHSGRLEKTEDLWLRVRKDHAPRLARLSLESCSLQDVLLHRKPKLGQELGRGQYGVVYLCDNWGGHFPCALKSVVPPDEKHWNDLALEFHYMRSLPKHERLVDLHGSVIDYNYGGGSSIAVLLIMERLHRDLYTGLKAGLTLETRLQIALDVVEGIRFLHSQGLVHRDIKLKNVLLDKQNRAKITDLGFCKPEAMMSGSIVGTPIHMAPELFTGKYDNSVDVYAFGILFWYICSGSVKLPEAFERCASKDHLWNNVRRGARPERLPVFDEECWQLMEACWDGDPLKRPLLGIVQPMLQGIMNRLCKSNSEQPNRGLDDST
UniProt Q86YN1: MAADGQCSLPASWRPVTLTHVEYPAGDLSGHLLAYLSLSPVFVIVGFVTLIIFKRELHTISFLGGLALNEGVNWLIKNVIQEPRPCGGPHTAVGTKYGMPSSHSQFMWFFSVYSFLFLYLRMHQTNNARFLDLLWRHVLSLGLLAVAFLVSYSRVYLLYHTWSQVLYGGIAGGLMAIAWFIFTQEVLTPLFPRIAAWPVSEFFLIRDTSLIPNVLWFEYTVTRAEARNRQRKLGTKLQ
UniProt O14641: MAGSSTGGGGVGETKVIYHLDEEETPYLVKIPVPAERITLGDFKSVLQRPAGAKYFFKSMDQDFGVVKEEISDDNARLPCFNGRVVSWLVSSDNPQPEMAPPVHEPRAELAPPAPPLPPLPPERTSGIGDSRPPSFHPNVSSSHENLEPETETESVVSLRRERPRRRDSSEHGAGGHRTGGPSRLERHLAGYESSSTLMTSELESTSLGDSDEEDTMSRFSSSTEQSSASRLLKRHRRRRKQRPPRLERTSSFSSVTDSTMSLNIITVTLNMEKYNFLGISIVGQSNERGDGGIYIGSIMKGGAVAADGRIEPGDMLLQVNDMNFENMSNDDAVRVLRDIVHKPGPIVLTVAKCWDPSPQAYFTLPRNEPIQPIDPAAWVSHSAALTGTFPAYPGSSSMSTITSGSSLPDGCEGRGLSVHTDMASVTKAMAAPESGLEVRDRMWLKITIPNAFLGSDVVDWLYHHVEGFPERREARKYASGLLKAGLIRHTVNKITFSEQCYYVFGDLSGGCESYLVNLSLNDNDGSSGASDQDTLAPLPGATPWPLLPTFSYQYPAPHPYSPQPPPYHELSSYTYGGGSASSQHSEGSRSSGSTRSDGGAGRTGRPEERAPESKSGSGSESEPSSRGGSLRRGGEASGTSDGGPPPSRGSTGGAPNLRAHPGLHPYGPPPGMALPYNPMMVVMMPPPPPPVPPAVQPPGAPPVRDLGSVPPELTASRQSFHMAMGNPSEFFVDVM

[2] = compound: CC[C@@H]1C(=O)N(C)c2cnc(Nc3ccc(C(=O)N[C@H]4CC[C@H](N5CCN(CC6CC6)CC5)CC4)cc3OC)nc2N1C(C)C [volasertib]
Summary of the method: as §1

[3] = compound: CC[C@H](C)N1C=C(C2=C(C=C(C=C21)C3=CN=C(C=C3)N4CCNCC4)C(=O)NCC5=C(C=C(NC5=O)C)C)C
Summary of the method: as §1

[4] = compound: CC[C@H](C)[C@@H](C(=O)N[C@@H]([C@@H](C)O)C(=O)N[C@@H](CC(C)C)C(=O)[C@]1(CO1)C)NC(=O)[C@H]([C@@H](C)CC)N(C)C(=O)C [epoxomicin]
Summary of the method: as §1

[5] = compound: CCn1cc(-c2ccnc3[nH]c(-c4cccc(CN(C)C)c4)cc23)c(-c2ccc(NC(=O)N(C)C)cc2)n1
Summary of the method: as §1

[6] = compound: CN(C)CC(=O)Nc1ccc2[nH]c(=O)c3ccccc3c2c1
Summary of the method: as §1

[7] = compound: CN1C2=C(C3=C1C(=O)N(N=C3)CC4=CC(=CC=C4)N)SC(=C2)S(=O)C
Summary of the method: as §1

[8] = compound: CN1CCC(CNc2ccc3ncc(-c4cccc(OC(F)(F)F)c4)n3n2)CC1
Summary of the method: as §1

[9] = compound: CCn1c(C(=O)N(C2CC2)C2CC2)cc2c3c(ncn3C)c(Nc3cc(C)n(C)n3)nc21
Summary of the method: as §1

[10] = compound: CN(CCOC1=CC=C(C=C1)C[C@H]2C(=O)NC(=O)S2)C3=CC=CC=N3 (racemic) [rosiglitazone]
Summary of the method: as §1

Measured: log2 fold change

DUS2 (UniProt Q9NX74)
inactive: [1] -0.052 | [2] -0.242 | [3] 0.037 | [4] 0.059 | [5] -0.029 | [6] 0.055 | [7] 0.115 | [8] -0.02

DNAJC19 (UniProt Q96DA6)
inactive: [1] -0.094 | [2] -0.042 | [3] -0.014 | [4] -0.015 | [5] -0.022 | [6] 0.002 | [7] -0.05 | [8] -0.148

DOK1 (UniProt Q99704)
inactive: [1] -0.125 | [2] -0.615 | [3] 0.367 | [4] -0.115 | [9] -0.102 | [6] -0.115 | [10] -0.043

DNTTIP2 (UniProt Q5QJE6)
inactive: [1] 0.047 | [2] -0.002 | [3] 0.031 | [4] -0.144 | [5] 0.09 | [6] -0.028 | [7] 0.226 | [8] -0.028

DPM1 (UniProt O60762)
inactive: [1] -0.007 | [2] 0.068 | [3] -0.012 | [4] 0 | [9] 0.013 | [5] -0.003 | [6] -0.002 | [10] 0.021 | [7] -0.07 | [8] -0.032

DYRK1A isoform 2 (UniProt Q13627)
inactive: [1] 0.015 | [2] -0.005 | [3] 0.104 | [4] 0.048 | [5] -0.05 | [6] 0.014 | [7] -0.024 | [8] -0.086

EBNA1BP2 (UniProt Q99848)
inactive: [1] 0.167 | [2] 0.351 | [3] 0.021 | [4] -0.343 | [5] 0.132 | [6] -0.106 | [7] 0.379 | [8] 0.197

DTNBP1 (UniProt Q96EV8)
inactive: [1] -0.017 | [2] 0.009 | [3] -0.002 | [4] 0.048 | [5] -0.086 | [6] -0.009 | [7] -0.028 | [8] 0.01

DXO (UniProt O77932)
inactive: [1] 0.112 | [3] -0.022 | [4] -0.082 | [9] 0.062 | [5] -0.074 | [6] -0.048 | [10] 0.097 | [7] -0.085 | [8] -0.123

ECHDC3 (UniProt Q96DC8)
inactive: [1] -0.005 | [3] 0.167 | [4] 0.076 | [9] -0.003 | [5] -0.05 | [6] 0.028 | [10] 0.02 | [8] 0.17

E2F3 (UniProt O00716)
inactive: [1] 0.079 | [3] 0.029 | [4] 0.098 | [9] -0.123 | [5] 0.039 | [6] 0.07 | [10] -0.016 | [8] -0.223

DYSF isoform 13 (UniProt O75923)
inactive: [1] 0.062 | [3] -0.145 | [4] -0.195 | [9] 0.014 | [5] -0.034 | [6] 0.023 | [10] -0.081 | [8] -0.016

DTWD1 (UniProt Q8N5C7)
inactive: [1] -0.081 | [2] -0.196 | [3] -0.07 | [4] -0.054 | [5] -0.033 | [6] 0.036 | [7] -0.046 | [8] 0.089

DSN1 (UniProt Q9H410)
inactive: [1] -0.218 | [3] -0.034 | [4] -0.004 | [6] 0.007 | [7] -0.008
active: [2] -0.418

DNAJB12 (UniProt Q9NXW2)
inactive: [1] -0.045 | [2] -0.123 | [3] -0.033 | [4] -0.003 | [5] 0.024 | [6] 0.022 | [7] 0.068 | [8] -0.081

DSTYK (UniProt Q6XUX3)
inactive: [1] 0.076 | [3] 0.16 | [4] -0.137 | [9] -0.18 | [5] 0.005 | [6] 0.046 | [10] 0.067 | [7] -0.096 | [8] -0.247

DNM1L isoform 2 (UniProt O00429)
inactive: [1] -0.024 | [2] -0.154 | [3] -0.045 | [9] 0.011 | [5] 0.065 | [6] 0.132 | [10] 0.136 | [7] -0.098 | [8] -0.094

DNAJB2 (UniProt P25686)
inactive: [1] 0.011 | [2] 0.151 | [4] 0.032 | [5] 0.135 | [7] 0.042 | [8] -0.179

2 records drawn at random from the list so far:
DNAJB2 (UniProt P25686)
inactive: [1] 0.011 | [2] 0.151 | [4] 0.032 | [5] 0.135 | [7] 0.042 | [8] -0.179

DSTYK (UniProt Q6XUX3)
inactive: [1] 0.076 | [3] 0.16 | [4] -0.137 | [9] -0.18 | [5] 0.005 | [6] 0.046 | [10] 0.067 | [7] -0.096 | [8] -0.247

(further entries)

DOLPP1 (UniProt Q86YN1)
inactive: [1] -0.062 | [2] -0.008 | [3] -0.052 | [6] 0.133

DYNC1I2 isoform 2 (UniProt Q13409)
inactive: [1] 0.012 | [2] 0.045 | [4] -0.06

DNM2 isoform 4 (UniProt P50570)
inactive: [1] 0.026 | [3] -0.125 | [4] 0.241 | [5] -0.01 | [7] 0.027 | [8] -0.252

EAPP (UniProt Q56P03)
inactive: [1] 0 | [2] -0.051 | [3] -0.005 | [9] -0.12 | [5] 0.005 | [6] -0.012 | [7] -0.022 | [8] 0.2

DVL2 (UniProt O14641)
inactive: [1] 0.181 | [2] -0.253 | [4] -0.163 | [5] -0.067 | [8] 0.204

EEA1 (UniProt Q15075)
inactive: [1] 0.036 | [2] 0.031 | [3] -0.024 | [4] 0.017 | [5] 0.019 | [6] -0.038 | [7] -0.023 | [8] 0.001

DNPEP (UniProt B9ZVU2)
inactive: [1] 0.001 | [2] 0.248 | [9] 0.027 | [5] 0.085 | [6] 0.019 | [7] -0.057 | [8] -0.047

Reference: the supplement of paper PMC10849652
